In the supplement of paper PMC10849652:
The other results are listed elsewhere or left out.

Protein sequences, listed by entry. Tags and fused reporters are not part of them. Lines headed by an entry give the natural chain unless they say otherwise; changes in a name come on top.
UniProt Q8N9N7: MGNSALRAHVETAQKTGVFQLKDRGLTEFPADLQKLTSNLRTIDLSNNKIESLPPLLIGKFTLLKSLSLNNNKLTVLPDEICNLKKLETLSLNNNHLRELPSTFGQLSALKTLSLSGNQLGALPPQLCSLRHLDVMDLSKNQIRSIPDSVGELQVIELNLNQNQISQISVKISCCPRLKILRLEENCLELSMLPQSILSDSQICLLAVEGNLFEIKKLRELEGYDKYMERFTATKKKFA
UniProt Q15334: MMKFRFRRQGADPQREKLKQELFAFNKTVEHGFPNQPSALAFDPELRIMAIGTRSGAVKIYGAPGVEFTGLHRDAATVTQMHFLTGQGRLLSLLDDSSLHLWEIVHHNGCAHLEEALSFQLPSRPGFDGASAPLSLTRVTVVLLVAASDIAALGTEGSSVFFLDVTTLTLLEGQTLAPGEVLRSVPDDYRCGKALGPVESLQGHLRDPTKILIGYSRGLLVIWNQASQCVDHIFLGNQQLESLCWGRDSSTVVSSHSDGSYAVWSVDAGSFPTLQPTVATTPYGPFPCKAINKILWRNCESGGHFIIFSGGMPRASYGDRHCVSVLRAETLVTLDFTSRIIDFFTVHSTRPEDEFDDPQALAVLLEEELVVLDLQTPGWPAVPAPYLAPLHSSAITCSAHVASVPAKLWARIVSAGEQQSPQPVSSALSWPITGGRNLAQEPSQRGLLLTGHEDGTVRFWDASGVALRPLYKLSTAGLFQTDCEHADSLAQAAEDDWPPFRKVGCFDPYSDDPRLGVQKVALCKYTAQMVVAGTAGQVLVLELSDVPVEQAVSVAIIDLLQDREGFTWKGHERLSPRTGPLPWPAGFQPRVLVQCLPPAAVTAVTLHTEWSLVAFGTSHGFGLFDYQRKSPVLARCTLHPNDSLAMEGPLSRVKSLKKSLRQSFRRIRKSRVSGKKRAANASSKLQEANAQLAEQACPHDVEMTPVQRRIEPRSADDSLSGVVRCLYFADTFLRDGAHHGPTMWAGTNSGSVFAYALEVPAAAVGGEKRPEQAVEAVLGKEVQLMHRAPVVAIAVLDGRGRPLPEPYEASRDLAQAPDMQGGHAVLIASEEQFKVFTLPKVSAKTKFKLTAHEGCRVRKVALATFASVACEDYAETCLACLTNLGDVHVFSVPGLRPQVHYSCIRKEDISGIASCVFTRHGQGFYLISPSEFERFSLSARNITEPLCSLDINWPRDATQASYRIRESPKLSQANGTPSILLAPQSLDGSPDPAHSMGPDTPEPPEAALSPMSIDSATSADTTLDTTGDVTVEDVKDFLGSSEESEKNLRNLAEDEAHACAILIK
UniProt Q14693: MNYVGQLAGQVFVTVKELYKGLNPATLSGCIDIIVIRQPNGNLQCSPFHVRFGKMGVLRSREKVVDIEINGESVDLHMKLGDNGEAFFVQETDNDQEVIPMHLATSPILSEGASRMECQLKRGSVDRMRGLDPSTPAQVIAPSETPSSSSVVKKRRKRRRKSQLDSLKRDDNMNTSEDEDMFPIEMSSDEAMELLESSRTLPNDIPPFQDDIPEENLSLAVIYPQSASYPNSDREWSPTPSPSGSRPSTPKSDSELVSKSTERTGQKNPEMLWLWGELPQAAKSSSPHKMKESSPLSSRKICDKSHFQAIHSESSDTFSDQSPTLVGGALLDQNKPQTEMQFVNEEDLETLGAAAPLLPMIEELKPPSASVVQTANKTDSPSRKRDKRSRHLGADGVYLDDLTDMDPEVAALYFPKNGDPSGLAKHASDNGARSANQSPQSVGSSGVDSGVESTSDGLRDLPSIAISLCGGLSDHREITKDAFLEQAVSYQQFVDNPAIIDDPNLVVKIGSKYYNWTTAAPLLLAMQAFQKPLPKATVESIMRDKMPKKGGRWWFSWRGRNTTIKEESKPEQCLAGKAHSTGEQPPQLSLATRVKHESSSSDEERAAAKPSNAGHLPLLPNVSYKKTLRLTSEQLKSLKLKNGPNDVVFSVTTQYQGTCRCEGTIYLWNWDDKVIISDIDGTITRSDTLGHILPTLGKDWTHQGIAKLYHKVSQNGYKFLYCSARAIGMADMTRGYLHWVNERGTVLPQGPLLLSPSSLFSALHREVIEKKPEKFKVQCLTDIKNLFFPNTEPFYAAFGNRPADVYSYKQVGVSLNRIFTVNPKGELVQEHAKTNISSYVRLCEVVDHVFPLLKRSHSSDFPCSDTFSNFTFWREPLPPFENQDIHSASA
UniProt Q9H0V9: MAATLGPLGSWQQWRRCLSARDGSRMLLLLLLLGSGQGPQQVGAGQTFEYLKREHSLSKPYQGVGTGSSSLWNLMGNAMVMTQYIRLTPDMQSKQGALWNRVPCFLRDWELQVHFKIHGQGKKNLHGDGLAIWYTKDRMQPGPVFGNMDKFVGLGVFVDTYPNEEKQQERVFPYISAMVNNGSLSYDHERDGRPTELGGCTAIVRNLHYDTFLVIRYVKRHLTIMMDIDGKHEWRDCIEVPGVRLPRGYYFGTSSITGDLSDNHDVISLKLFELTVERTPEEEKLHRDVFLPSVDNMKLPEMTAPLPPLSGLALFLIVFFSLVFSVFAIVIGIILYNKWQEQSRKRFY
UniProt Q8IWU2: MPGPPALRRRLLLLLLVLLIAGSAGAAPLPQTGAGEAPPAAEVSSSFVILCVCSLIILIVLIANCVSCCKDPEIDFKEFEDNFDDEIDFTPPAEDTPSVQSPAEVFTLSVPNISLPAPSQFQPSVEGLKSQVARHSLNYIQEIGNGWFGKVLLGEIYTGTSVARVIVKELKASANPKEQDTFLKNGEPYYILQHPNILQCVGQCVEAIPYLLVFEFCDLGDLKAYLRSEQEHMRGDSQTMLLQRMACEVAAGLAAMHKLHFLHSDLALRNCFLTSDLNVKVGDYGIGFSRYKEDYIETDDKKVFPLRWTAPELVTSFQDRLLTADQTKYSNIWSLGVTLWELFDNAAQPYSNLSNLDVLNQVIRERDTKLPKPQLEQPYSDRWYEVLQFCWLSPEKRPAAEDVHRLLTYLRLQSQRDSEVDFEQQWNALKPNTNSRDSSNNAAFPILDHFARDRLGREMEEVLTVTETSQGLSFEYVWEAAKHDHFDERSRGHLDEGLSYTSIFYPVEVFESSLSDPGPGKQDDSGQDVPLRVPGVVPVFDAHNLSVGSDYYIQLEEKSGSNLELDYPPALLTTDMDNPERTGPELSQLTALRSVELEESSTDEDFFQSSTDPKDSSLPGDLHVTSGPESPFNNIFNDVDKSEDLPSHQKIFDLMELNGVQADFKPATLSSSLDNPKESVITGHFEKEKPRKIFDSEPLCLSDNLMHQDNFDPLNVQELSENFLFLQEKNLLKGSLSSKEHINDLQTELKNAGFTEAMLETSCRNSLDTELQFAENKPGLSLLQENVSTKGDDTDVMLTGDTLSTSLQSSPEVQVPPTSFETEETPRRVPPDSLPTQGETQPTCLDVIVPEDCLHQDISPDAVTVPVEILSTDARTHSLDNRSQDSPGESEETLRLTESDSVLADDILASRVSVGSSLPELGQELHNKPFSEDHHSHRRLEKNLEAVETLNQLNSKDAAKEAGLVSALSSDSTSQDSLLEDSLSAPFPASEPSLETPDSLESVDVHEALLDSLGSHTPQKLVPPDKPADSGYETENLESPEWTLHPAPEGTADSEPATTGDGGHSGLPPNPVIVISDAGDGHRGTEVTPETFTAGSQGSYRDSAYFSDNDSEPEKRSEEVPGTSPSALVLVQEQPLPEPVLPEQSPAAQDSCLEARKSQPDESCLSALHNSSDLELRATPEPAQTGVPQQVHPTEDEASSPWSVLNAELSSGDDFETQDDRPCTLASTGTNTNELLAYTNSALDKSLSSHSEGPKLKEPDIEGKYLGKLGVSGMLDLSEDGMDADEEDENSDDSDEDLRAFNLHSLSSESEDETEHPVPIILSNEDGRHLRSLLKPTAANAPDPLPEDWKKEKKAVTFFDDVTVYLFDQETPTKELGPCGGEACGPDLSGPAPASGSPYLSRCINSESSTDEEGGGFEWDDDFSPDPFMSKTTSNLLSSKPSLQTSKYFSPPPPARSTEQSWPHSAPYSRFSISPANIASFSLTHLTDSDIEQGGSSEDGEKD
UniProt P09382, whole entry, looked up: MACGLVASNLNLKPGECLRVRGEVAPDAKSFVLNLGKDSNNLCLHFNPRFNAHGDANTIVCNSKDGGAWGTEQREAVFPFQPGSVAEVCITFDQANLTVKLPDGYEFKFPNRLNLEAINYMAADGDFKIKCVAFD
UniProt Q6P1Q0: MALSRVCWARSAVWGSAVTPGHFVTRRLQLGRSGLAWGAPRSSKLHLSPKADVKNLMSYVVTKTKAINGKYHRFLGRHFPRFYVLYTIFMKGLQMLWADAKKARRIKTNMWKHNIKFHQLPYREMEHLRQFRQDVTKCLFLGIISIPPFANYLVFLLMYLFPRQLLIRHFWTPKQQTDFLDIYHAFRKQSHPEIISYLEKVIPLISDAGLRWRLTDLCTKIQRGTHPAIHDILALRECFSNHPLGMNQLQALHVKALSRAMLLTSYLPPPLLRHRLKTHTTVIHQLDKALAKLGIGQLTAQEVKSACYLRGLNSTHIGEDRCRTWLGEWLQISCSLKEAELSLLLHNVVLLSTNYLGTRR
UniProt Q6UWP7: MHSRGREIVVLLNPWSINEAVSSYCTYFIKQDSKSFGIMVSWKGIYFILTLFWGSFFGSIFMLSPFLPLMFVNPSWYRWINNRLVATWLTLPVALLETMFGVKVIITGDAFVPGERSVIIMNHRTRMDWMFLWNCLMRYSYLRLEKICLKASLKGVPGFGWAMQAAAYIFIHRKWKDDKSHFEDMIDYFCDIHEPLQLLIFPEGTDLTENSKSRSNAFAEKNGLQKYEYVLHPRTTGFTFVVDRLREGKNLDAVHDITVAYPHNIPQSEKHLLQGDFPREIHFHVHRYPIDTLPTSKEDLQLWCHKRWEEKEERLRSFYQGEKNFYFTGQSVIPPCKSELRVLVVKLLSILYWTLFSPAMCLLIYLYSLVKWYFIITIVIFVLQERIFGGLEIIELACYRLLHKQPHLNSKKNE
UniProt Q9UHB6: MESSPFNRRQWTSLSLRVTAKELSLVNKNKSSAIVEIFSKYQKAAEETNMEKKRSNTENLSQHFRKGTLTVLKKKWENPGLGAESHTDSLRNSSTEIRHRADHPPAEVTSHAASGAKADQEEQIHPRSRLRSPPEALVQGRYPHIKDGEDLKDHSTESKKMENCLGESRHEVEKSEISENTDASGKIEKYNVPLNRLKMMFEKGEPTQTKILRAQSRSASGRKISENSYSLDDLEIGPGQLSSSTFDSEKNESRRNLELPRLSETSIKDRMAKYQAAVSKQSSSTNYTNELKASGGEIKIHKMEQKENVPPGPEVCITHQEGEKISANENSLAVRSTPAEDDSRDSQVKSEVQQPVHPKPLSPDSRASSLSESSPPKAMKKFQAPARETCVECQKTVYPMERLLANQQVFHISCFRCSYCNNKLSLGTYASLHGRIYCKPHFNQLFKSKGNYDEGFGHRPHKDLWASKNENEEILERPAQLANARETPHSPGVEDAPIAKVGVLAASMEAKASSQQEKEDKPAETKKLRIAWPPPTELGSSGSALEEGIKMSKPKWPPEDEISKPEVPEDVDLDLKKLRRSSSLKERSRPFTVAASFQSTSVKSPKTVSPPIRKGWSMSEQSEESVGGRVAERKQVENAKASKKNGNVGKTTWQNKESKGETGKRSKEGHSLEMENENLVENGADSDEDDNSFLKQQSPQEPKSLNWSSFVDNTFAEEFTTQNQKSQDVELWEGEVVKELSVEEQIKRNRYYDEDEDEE
UniProt Q6MZP7: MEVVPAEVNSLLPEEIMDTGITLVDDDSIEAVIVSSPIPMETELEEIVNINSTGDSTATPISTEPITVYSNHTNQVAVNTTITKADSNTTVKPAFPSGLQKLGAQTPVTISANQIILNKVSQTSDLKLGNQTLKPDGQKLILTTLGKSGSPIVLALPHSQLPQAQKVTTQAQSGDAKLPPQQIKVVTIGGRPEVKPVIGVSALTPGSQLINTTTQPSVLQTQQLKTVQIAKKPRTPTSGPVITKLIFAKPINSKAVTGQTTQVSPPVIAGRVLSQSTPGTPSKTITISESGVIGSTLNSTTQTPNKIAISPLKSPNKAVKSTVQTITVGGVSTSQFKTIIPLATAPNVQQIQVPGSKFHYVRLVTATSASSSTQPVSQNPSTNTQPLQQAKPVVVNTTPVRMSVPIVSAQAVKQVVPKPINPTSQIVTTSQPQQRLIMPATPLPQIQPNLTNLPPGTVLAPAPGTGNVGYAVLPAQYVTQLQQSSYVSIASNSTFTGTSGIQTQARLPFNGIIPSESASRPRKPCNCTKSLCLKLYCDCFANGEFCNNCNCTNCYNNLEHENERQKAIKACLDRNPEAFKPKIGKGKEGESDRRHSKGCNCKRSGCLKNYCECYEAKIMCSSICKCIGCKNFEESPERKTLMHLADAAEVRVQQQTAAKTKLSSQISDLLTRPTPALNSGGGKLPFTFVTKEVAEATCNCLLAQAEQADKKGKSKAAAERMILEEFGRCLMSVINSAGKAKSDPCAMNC

Legend:
Experiment in all cases: log2 fold change, soluble protein after heating vs DMSO (PISA); higher = thermal stabilisation; K562 lysate, 10 uM; active = over 0.2 and 3.5 SD of the protein, either way, in both replicates (recomputed)
erlotinib = compound: C#Cc1cccc(Nc2ncnc3cc(OCCOC)c(OCCOC)cc23)c1 [erlotinib]
In short: (§1)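 Soluble protein was defined as the supernatant remaining after 21,000xg for 90 min, following pooling of heated aliquots and adjustment to 0.5% NP-40 at 4°C. Before that, crude K562 extract at 1 mg/mL protein in PBS pH 7.4 with 1 mM MgCl2 was treated with 10 μM compound for 30 min and heated for 3 min across 48°C-58°C. Quantification used TMTpro 16plex LC-MS/MS with channel sums equalised, and values are log-two fold changes in thermal stability relative to solvent controls from duplicates.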

[1] = compound: C/C(=N\NC(=O)C1=CC(=CC=C1)S(=O)(=O)N2CCOCC2)/C3=C(C=CC(=C3)Cl)O
In short: as §1

[2] = compound: C1=CC(=CC=C1C2=NC3=C(N2)C=C(C=C3)C(=O)N)OC4=CC=C(C=C4)Cl
In short: as §1

[3] = compound: C1=CC2=C(C=CC(=C2)/C=C\3/C(=O)NC(=NCC4=CC=CS4)S3)N=C1
In short: as §1

[4] = compound: C1=CC2=NC=CN=C2C=C1/C=C/3\C(=O)NC(=O)S3
In short: as §1

[5] = compound: C1=CC=C(C=C1)C2=NC(=C(N2)C3=CC=NC=C3)C4=CC(=C(C=C4)Cl)O
In short: as §1

[6] = compound: C1=CC=C2C(=C1)C3=NNC4=CC=CC(=C43)C2=O
In short: as §1

[7] = compound: C1CCN(C1)C(=O)NC2=CC=CC(=C2)NC3=NC=C(C(=N3)NCCC4=CN=CN4)Br
In short: as §1

[8] = compound: C1CN(CCC1(CC2=CC=C(C=C2)Cl)N)C3=NC=NC4=C3C=CN4
In short: as §1

IRAK-1-4 Inhibitor I = compound: C1COCCN1CCN2C3=CC=CC=C3N=C2NC(=O)C4=CC(=CC=C4)[N+](=O)[O-] [IRAK-1-4 Inhibitor I]
In short: as §1

ibrutinib = compound: C=CC(=O)N1CCC[C@@H](n2nc(-c3ccc(Oc4ccccc4)cc3)c3c(N)ncnc32)C1 [ibrutinib]
In short: as §1

[9] = compound: CC(=O)c1cnc2ccc(-c3cc(Cl)c(O)c(Cl)c3)nc2c1N[C@H]1CC[C@H](CN(C)C)CC1
In short: as §1

ralimetinib = compound: CC(C)(C)Cn1c(N)nc2ccc(-c3[nH]c(C(C)(C)C)nc3-c3ccc(F)cc3)nc21 [ralimetinib]
In short: as §1

[10] = compound: CC(C)(O)CC(=O)NCCn1ccc2ncnc(Nc3ccc(Oc4cccc(C(F)(F)F)c4)c(Cl)c3)c21
In short: as §1

[11] = compound: CC(C)C1=C2N=C(C=C(N2N=C1)NCC3=CC=CC=C3)NCCCCCCN
In short: as §1

[12] = compound: CC1=C(C(CC(=O)N1)C2=CC=C(C=C2)C(F)(F)F)C(=O)NC3=C(C=C4C(=C3)C=NN4)F
In short: as §1

[13] = compound: CC1=C(C2=C(C=C1)C(=O)C3=CC=CC=C3N2CCCN)C
In short: as §1

[14] = compound: CC1=C(C=C(C=C1)NC(=O)C2=CC(=CC=C2)C(C)(C)C#N)NC3=CC4=C(C=C3)N=CN(C4=O)C
In short: as §1

[15] = compound: CC1=C(C=C(C=C1)NC(=O)C2=CC(=CC=C2)N(C)C)NC(=O)C3=CC=C(C=C3)O
In short: as §1

[16] = compound: CC1=CC=C(C=C1)SC2=C3C=C(SC3=CN=C2)C(=O)N
In short: as §1

Measured: log2 fold change

LRRC57 (UniProt Q8N9N7)
inactive: erlotinib -0.026 | [1] 0.032 | [2] 0.031 | [3] -0.005 | [4] 0.018 | [5] -0.008 | [6] 0.009 | [7] -0.016 | [8] -0.02 | IRAK-1-4 Inhibitor I 0.006 | ibrutinib 0.009 | [9] -0.024 | ralimetinib -0.004 | [10] -0.007 | [11] -0.009 | [12] -0.013 | [13] -0.005 | [14] 0.016 | [15] -0.033 | [16] -0.05

LLGL1 (UniProt Q15334)
inactive: erlotinib 0.036 | [1] -0.06 | [2] 0.021 | [3] 0.02 | [4] 0.007 | [5] 0.001 | [6] -0.112 | [7] -0.08 | [8] 0.018 | IRAK-1-4 Inhibitor I -0.136 | ibrutinib 0.007 | [9] 0.091 | ralimetinib 0.071 | [10] 0.015 | [11] -0.141 | [12] 0.033 | [13] -0.058 | [14] 0.019 | [15] 0.174 | [16] -0.011

LRRC47 (UniProt Q8N1G4)
inactive: erlotinib -0.018 | [1] 0.042 | [2] -0.007 | [3] -0.009 | [4] 0.005 | [5] 0.003 | [6] 0.016 | [7] 0.008 | [8] 0.006 | IRAK-1-4 Inhibitor I 0.01 | ibrutinib -0.014 | [9] -0.009 | ralimetinib -0.005 | [10] -0.009 | [11] 0 | [12] -0.028 | [13] 0.012 | [14] 0.012 | [15] -0.005 | [16] 0

LPIN1 isoform 7 (UniProt Q14693)
inactive: erlotinib 0.047 | [1] -0.046 | [2] 0.027 | [3] 0.003 | [4] 0.003 | [5] 0.011 | [6] -0.006 | [7] 0.038 | [8] 0.132 | IRAK-1-4 Inhibitor I 0.034 | ibrutinib 0.02 | [9] 0.07 | ralimetinib 0.035 | [10] -0.025 | [11] -0.033 | [12] 0.066 | [13] 0.022 | [14] -0.016 | [15] 0.007 | [16] -0.009

LMAN2L isoform 2 (UniProt Q9H0V9)
inactive: erlotinib 0.022 | [1] 0.005 | [2] 0.001 | [3] 0.038 | [4] 0.033 | [5] -0.021 | [6] 0.025 | [7] -0.008 | [8] -0.019 | IRAK-1-4 Inhibitor I 0.031 | ibrutinib -0.006 | [9] 0.023 | ralimetinib -0.001 | [10] -0.021 | [11] -0.021 | [12] -0.028 | [13] 0.021 | [14] 0.042 | [15] -0.003 | [16] 0.055

Two records drawn at random from the list so far, as already listed:
LMAN2L isoform 2 (UniProt Q9H0V9)
inactive: erlotinib 0.022 | [1] 0.005 | [2] 0.001 | [3] 0.038 | [4] 0.033 | [5] -0.021 | [6] 0.025 | [7] -0.008 | [8] -0.019 | IRAK-1-4 Inhibitor I 0.031 | ibrutinib -0.006 | [9] 0.023 | ralimetinib -0.001 | [10] -0.021 | [11] -0.021 | [12] -0.028 | [13] 0.021 | [14] 0.042 | [15] -0.003 | [16] 0.055

LRRC57 (UniProt Q8N9N7)
inactive: erlotinib -0.026 | [1] 0.032 | [2] 0.031 | [3] -0.005 | [4] 0.018 | [5] -0.008 | [6] 0.009 | [7] -0.016 | [8] -0.02 | IRAK-1-4 Inhibitor I 0.006 | ibrutinib 0.009 | [9] -0.024 | ralimetinib -0.004 | [10] -0.007 | [11] -0.009 | [12] -0.013 | [13] -0.005 | [14] 0.016 | [15] -0.033 | [16] -0.05

Following part:

LRRC8C (UniProt Q8TDW0)
inactive: erlotinib -0.087 | [1] -0.033 | [2] -0.041 | [3] -0.016 | [4] -0.074 | [5] 0.105 | [6] -0.053 | [7] 0.046 | [8] 0.031 | IRAK-1-4 Inhibitor I 0.057 | ibrutinib 0.126 | [9] -0.027 | ralimetinib 0.108 | [10] -0.052 | [11] 0.082 | [12] -0.119 | [13] -0.149 | [14] 0.022 | [15] 0.018 | [16] 0.058

LMTK2 (UniProt Q8IWU2)
inactive: erlotinib -0.075 | [1] 0.057 | [2] 0.046 | [3] 0.002 | [4] -0.076 | [5] 0.02 | [6] -0.043 | [7] -0.033 | [8] 0.1 | IRAK-1-4 Inhibitor I -0.007 | ibrutinib -0.017 | [9] 0.051 | ralimetinib 0.038 | [10] -0.057 | [11] -0.013 | [12] -0.025 | [13] -0.025 | [14] 0.127 | [15] 0.015 | [16] -0.034

LGALS1 (UniProt P09382)
inactive: erlotinib 0.021 | [1] -0.013 | [2] -0.008 | [3] 0.012 | [4] -0.02 | [5] 0 | [6] -0.011 | [7] 0.019 | [8] 0.05 | IRAK-1-4 Inhibitor I -0.005 | ibrutinib 0.034 | [9] -0.025 | ralimetinib 0.002 | [10] -0.05 | [11] 0.019 | [12] -0.038 | [13] -0.002 | [14] 0.037 | [15] -0.004 | [16] 0.008

LIMD1 (UniProt Q9UGP4)
inactive: erlotinib 0.004 | [1] 0.001 | [2] 0.052 | [3] 0.009 | [4] -0.005 | [5] 0.013 | [6] 0.035 | [7] -0.027 | [8] 0.042 | IRAK-1-4 Inhibitor I 0.012 | ibrutinib 0.017 | [9] 0.014 | ralimetinib -0.028 | [10] 0.012 | [11] -0.013 | [12] 0.001 | [13] 0.079 | [14] 0.068 | [15] 0.029 | [16] -0.038

LETMD1 isoform 7 (UniProt Q6P1Q0)
inactive: erlotinib -0.008 | [1] 0.124 | [2] -0.17 | [3] 0.022 | [4] -0.021 | [5] -0.019 | [6] 0.021 | [7] -0.021 | [8] -0.032 | IRAK-1-4 Inhibitor I 0.009 | ibrutinib 0.007 | [9] 0.04 | ralimetinib -0.001 | [10] -0.003 | [11] 0.024 | [12] 0.005 | [13] -0.063 | [14] 0.005 | [15] -0.092 | [16] 0.036

LIN28B (UniProt Q6ZN17)
inactive: erlotinib 0.018 | [1] -0.02 | [2] 0.017 | [3] -0.012 | [4] -0.01 | [5] 0.011 | [6] 0.031 | [7] 0.013 | [8] -0.025 | IRAK-1-4 Inhibitor I -0.014 | ibrutinib -0.003 | [9] 0.001 | ralimetinib 0.007 | [10] -0.02 | [11] 0.007 | [12] -0.019 | [13] 0.009 | [14] -0.017 | [15] 0.01 | [16] 0.013

LCLAT1 (UniProt Q6UWP7)
inactive: erlotinib -0.04 | [1] -0.026 | [2] 0.005 | [3] -0.008 | [4] -0.009 | [5] -0.04 | [6] -0.091 | [7] 0.021 | [8] 0.028 | IRAK-1-4 Inhibitor I 0.007 | ibrutinib -0.105 | [9] -0.034 | ralimetinib 0.013 | [10] -0.012 | [11] 0.002 | [12] 0.016 | [13] -0.024 | [14] 0.075 | [15] 0.024 | [16] -0.049

LMBRD2 (UniProt Q68DH5)
inactive: erlotinib -0.025 | [1] -0.116 | [2] 0.155 | [3] -0.009 | [4] -0.045 | [5] -0.039 | [6] -0.021 | [7] 0.001 | [8] -0.057 | IRAK-1-4 Inhibitor I 0.029 | ibrutinib -0.004 | [9] 0.028 | ralimetinib 0.049 | [10] -0.063 | [11] 0.694 | [12] 0.118 | [13] -0.005 | [14] 0.023 | [15] -0.006 | [16] -0.017

LIMA1 isoform 4 (UniProt Q9UHB6)
inactive: erlotinib 0.001 | [1] -0.035 | [2] 0.002 | [3] -0.029 | [4] -0.018 | [5] 0.028 | [6] -0.007 | [7] -0.006 | [8] -0.025 | IRAK-1-4 Inhibitor I 0.009 | ibrutinib 0 | [9] 0.01 | ralimetinib -0.01 | [10] -0.042 | [11] 0 | [12] -0.018 | [13] -0.04 | [14] -0.006 | [15] 0.01 | [16] -0.007

LCP2 (UniProt Q13094)
inactive: erlotinib -0.012 | [1] -0.034 | [2] 0.032 | [3] -0.012 | [4] -0.013 | [5] -0.004 | [6] 0.015 | [7] 0.025 | [8] 0.057 | IRAK-1-4 Inhibitor I 0.016 | ibrutinib 0.055 | [9] -0.034 | ralimetinib 0.01 | [10] -0.005 | [11] 0.015 | [12] -0.032 | [13] -0.015 | [14] -0.021 | [15] 0.01 | [16] 0.008

LIN54 (UniProt Q6MZP7)
inactive: erlotinib 0.047 | [1] -0.23 | [2] 0.087 | [3] 0.055 | [4] 0.056 | [5] 0.048 | [6] -0.016 | [7] 0.022 | [8] -0.03 | IRAK-1-4 Inhibitor I 0.049 | ibrutinib 0.048 | [9] 0.002 | ralimetinib 0.072 | [10] -0.023 | [11] -0.051 | [12] 0.036 | [13] 0.049 | [14] -0.075 | [15] -0.042 | [16] -0.026
